PubChem BioAssay AID1224830 | NIAID – 2016
Here is an unselected part of about 18,000 deposited reagents. About 2,900 of all reagents (16%) were called active. 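Calls are made per well; low scores hint the gene aids the LPS response, high scores that it dampens it.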 Entries without a mark were called inactive. Repeated entries: four replicate wells of each siRNA pool.

Test: 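Genes whose knock-down alters the TNF-alpha reporter response to LPS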 (primary screen)
Cell system: human THP-1 monocytic leukaemia cells, TNF dual-luciferase reporter clone, PMA-differentiated to macrophage-like cells
Knock-down reagent: siRNA pool against human genes, 50 nM
Timing: LPS for 4 h, given about 3 days after siRNA transfection
Challenge: bacterial LPS (TLR4 ligand), 10 ng/ml
Read-out: 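TNF firefly reporter luminescence divided by renilla, normalised to the plate median, then turned into a robust z-score for each replicate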
Direction: TNF reporter robust z-score: higher = stronger TNF reporter response to LPS
Rule for the call: 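a well is active when its z-score exceeds 2.8 or falls below -1.5; control wells carry no call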

gene	TNF reporter robust z-score
ATP7B	-0.26
ATP7B	0.32
ATP7B	0.56
ATP7B	0.26
OR2F2	1.78
OR2F2	-0.24
OR2F2	0.12
OR2F2	0.17
FUBP3	0.28
FUBP3	0.11
FUBP3	-0.4
FUBP3	0.4
PNLIP	-1.26
PNLIP	-0.07
PNLIP	-0.76
PNLIP	-0.61
ALDH3A1	0.54
ALDH3A1	1.99
ALDH3A1	0.14
ALDH3A1	2.61
D2HGDH	1.79
D2HGDH	2.94 (active)
D2HGDH	0.96
D2HGDH	2.44
VTI1B	-0.54
VTI1B	-0.35
VTI1B	0.04
VTI1B	0.65
KIR2DL4	-0.27
KIR2DL4	-0.01
KIR2DL4	-0.71
KIR2DL4	0.75
ZNF208	-0.25
ZNF208	1.86
ZNF208	0.33
ZNF208	0.45
NKD1	1.21
NKD1	1.16
NKD1	0.21
NKD1	-0.19
RFX4	-0.06
RFX4	-1.07
RFX4	0.1
RFX4	2.55
RBP1	-0.9
RBP1	-0.54
RBP1	-1.28
PLB1	4.69 (active)
PLB1	0.44
PLB1	1.09
PLB1	-0.13
SIKE1	1.42
SIKE1	0.93
SIKE1	1.41
SIKE1	1.2
RPS16	-0.36
RPS16	-0.61
RPS16	-0.33
RPS16	-0.55
GSTM3	-0.28
GSTM3	0.47
GSTM3	0.93
GSTM3	-0.17
TPX2	0.67
TPX2	0.96
TPX2	0.71
TPX2	2.01
PLXNC1	2.63
PLXNC1	2.99 (active)
PLXNC1	0.79
PLXNC1	1.75
SELENOS	-0.2
SELENOS	0.05
SELENOS	-0.45
SELENOS	-0.03
MZT2A	0.78
MZT2A	1.17
MZT2A	1.85
MZT2A	1.13
POLDIP2	1.16
POLDIP2	-0.39
POLDIP2	0.41
POLDIP2	-0.56
CNTNAP2	-0.76
CNTNAP2	-1.64 (active)
CNTNAP2	-1.03
CNTNAP2	-0.92
RBMS2	0.24
RBMS2	-0.27
RBMS2	-0.13
RBMS2	0.55
P2RY4	0.56
P2RY4	0.21
P2RY4	-0.04
TLR5	1.44
TLR5	-0.17
TLR5	0.53
TLR5	1.15
NRP2	-1.11
NRP2	-0.9
NRP2	-1.03
NRP2	-0.47
PSMC3	-1.27
PSMC3	-1.49
PSMC3	-1.74 (active)
PSMC3	-1.2
STK24	-1.67 (active)
STK24	-0.13
STK24	-0.23
STK24	-0.36
